Data reported in patent US20180149606A1, “XENON BASED DRUG PROTEIN BINDING ASSAY” (priority 2016, published 2018).

Experiment: Xenon T2 in solutions with a high concentration of drug alone
Settings: no protein, 1×PBS

Cn1c(=O)c2c(ncn2C)n(C)c1=O [Caffeine, caffeine]
T2 of xenon in drug solution (0.057 M drug): 25.8 ± 0.2 s

Cc1onc(-c2c(F)cccc2Cl)c1C(=O)N[C@@H]1C(=O)N2[C@@H]1SC(C)(C)[C@@H]2C(=O)O [Flucloxacillin, flucloxacillin]
T2 of xenon in drug solution (0.0021 M drug): 43 ± 1 s

O=C([O-])c1ccccc1O.[Na+] [Salicylate, sodium salicylate]
T2 of xenon in drug solution (0.0014 M drug): 50 ± 1 s

CCCCCCCC/C=C\CCCCCCCC(=O)[O-].[Na+] [Sodium Oleate, sodium oleate]
T2 of xenon in drug solution (0.00003 M drug): 34 ± 1 s
